From paper PMC8162437 (Chemical Science, 2020)

Assay: general procedure: Fmoc solid-phase peptide synthesis; rink amide resin (P3Biosystems, 52001)
Conditions: late stage modification step

| Substance | step yield (RP-HPLC with internal standard) | step yield (isolated, bis-TFA salt) | step yield (isolated, TFA salt) |
| --- | --- | --- | --- |
| H-RPKPQQWFWLL-NH2 | 45% |  |  |
| H-MEVGWYRSPFSRVVHLYRNGK-OH | 18% |  |  |
| arylated bradykinin (H-RPPGFSPFR-OH) |  | 42% |  |
| PEPTIDE1{[MeNHSO2Ph-Val].Y.I.H.P.F}$$$$V2.0 | 97% |  | 68% |
| H-DRVYIHPFHL-OH | 20% |  |  |
| H-RPPGFSPFR-OH | 36% |  |  |

Some peptides are written in HELM: one residue between dots, names in brackets for other building blocks, links after the first $.
